According to PubChem BioAssay AID298 (DTP/NCI, 2004):
The list shows only some results of the screen, not a fair sample: it gathers tests that were run many times, whatever their T/C, doses with no T/C, and many T/C values between a quarter and a half above the control. Further doses and runs are listed elsewhere. T/C: endpoint of the treated group in % of that of the vehicle group. Schedule codes are those of the source, read here as Q, the interval in days (D) or hours (H), X, the number of doses. Some T/C values carry the count of animals alive at the toxicity check (mostly the fifth day); without a count, all were alive then. Some doses were run more than once; the values are given in rising order. Signs of the kind (2×) give the number of equal values in this list. Some values lie below zero, which means that the treated tumours became smaller. Some doses have a count of surviving animals in place of a T/C: the source holds a T/C of zero for them, seemingly a mark for toxic or unscored doses. Survivors were counted at the toxicity check, usually on the fifth day, unless a day is given; later deaths do not show. Some structures stand for samples that the source files as different forms (salt, stereo form or complex); doses refer to the form tested.

Test system: MX-1 breast xenograft, intrarenal, nude mice, tumor weight
Assay: NCI In Vivo Anticancer Drug Screen. Data for tumor model Human Mammary Carcinoma MX-1 Xenograft (intrarenal inoculation) in NU/NU BALB/C (nude) mice
Conditions: T/C endpoint: mean tumor weight change, higher T/C = larger tumour; for T/C: evaluated on day 11
Method in brief: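 Compounds were given to mice carrying transplanted tumors, and tumor size or survival was measured. Each value is the treated-group measurement (T) divided by the vehicle-treated control-group measurement (C).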

[1] = dose: 2.25 mg/kg/injection, schedule: Q01DX009 (ip), vehicle: saline
[2] = dose: 600.0 mg/kg/injection, schedule: Q04DX003 (sc), vehicle: saline
[3] = dose: 150.0 mg/kg/injection, schedule: Q04DX003 (ip), vehicle: water
[4] = dose: 300.0 mg/kg/injection, schedule: Q04DX003 (ip), vehicle: water
[5] = dose: 1200.0 mg/kg/injection, schedule: Q04DX003 (ip), vehicle: suspension in saline

Nc1ccn([C@@H]2C=C(CO)[C@@H](O)[C@H]2O)c(=O)n1
T/C (dose: 0.67 mg/kg/injection, schedule: Q01DX009 (ip), vehicle: saline): 13, 24 (2×), 48 % of control (2×) | T/C (dose: 1.0 mg/kg/injection, schedule: Q01DX009 (ip), vehicle: saline): 8 (2×), 9, 16 (2×), 17 % of control [5 of 6 alive on day 11] | T/C (dose: 1.5 mg/kg/injection, schedule: Q01DX009 (ip), vehicle: saline): 5 (2×) and 6 % of control | T/C [1]: -17 % of control [4 of 6 alive on day 11] (2×) | survivor count [1]: 1 of 6 on day 11 | survivor count (dose: 4.0 mg/kg/injection, schedule: Q01DX009 (ip), vehicle: saline): 1 of 6 on day 11

Oc1ccc(CCl)c2cccnc12
survivor count [2]: 0 of 6 on day 11

COc1ccc(S(=O)(=O)N/N=C/C(=O)O)cc1
survivor count (dose: 200.0 mg/kg/injection, schedule: Q01DX010 (sc), vehicle: saline with Tween-80): 2 of 6 on day 11

ClCC[N+]12CC[N+](CCCl)(CC1)C2
survivor count (dose: 400.0 mg/kg/injection, schedule: Q01DX010 (sc), vehicle: saline with Tween-80): 0 of 3 on day 11 | survivor count (dose: 600.0 mg/kg/injection, schedule: Q04DX003 (sc), vehicle: water): 0 of 6 on day 11

NNC(=O)c1ccncc1
survivor count (dose: 300.0 mg/kg/injection, schedule: Q04DX003 (sc), vehicle: saline): 0 of 6 on day 11 | survivor count [2]: 0 of 6 on day 11 | survivor count (dose: 1200.0 mg/kg/injection, schedule: Q04DX003 (sc), vehicle: saline): 0 of 6 on day 11

CNC=O
survivor count (dose: 800.0 mg/kg/injection, schedule: Q01DX010 (sc), vehicle: saline): 1 of 6 on day 11

CCC(=O)[O][Bi]([c]1ccccc1)[c]1ccccc1
survivor count (dose: 50.0 mg/kg/injection, schedule: Q04DX003 (ip), vehicle: Klucel (hydroxypropylcellulose) (HPC)): 0 of 6 on day 11 | survivor count (dose: 100.0 mg/kg/injection, schedule: Q04DX003 (ip), vehicle: Klucel (hydroxypropylcellulose) (HPC)): 0 of 6 on day 11 | survivor count (dose: 150.0 mg/kg/injection, schedule: Q04DX003 (ip), vehicle: Klucel (hydroxypropylcellulose) (HPC)): 0 of 6 on day 11 | survivor count (dose: 300.0 mg/kg/injection, schedule: Q04DX003 (ip), vehicle: Klucel (hydroxypropylcellulose) (HPC)): 0 of 6 on day 11 | survivor count (dose: 600.0 mg/kg/injection, schedule: Q04DX003 (ip), vehicle: Klucel (hydroxypropylcellulose) (HPC)): 0 of 6 on day 11 | survivor count (dose: 1200.0 mg/kg/injection, schedule: Q04DX003 (ip), vehicle: Klucel (hydroxypropylcellulose) (HPC)): 0 of 6 on day 11

OCCN1CCN(CC/C=C2/c3ccccc3Sc3ccc(C(F)(F)F)cc32)CC1
survivor count (dose: 240.0 mg/kg/injection, schedule: Q04DX003 (sc), vehicle: saline): 0 of 6 on day 11 and 3 of 6 on day 11 | survivor count (dose: 480.0 mg/kg/injection, schedule: Q04DX003 (sc), vehicle: saline): 0 of 6 on day 11

O=C1N[C@@H]([C@H]2CC[C@H](Cl)CN2)C(=O)N[C@H]1[C@H]1CC[C@H](Cl)CN1
survivor count (dose: 10.0 mg/kg/injection, schedule: Q01DX010 (sc), vehicle: water): 0 of 2 on day 11

CC1=C[P+](c2ccccc2)(c2ccccc2)C=C(c2ccccc2)O1
T/C (dose: 1.5 mg/kg/injection, schedule: Q04DX003 (ip), vehicle: saline): 147 % of control | T/C (dose: 3.0 mg/kg/injection, schedule: Q04DX003 (ip), vehicle: saline): 138 % of control | survivor count (dose: 6.0 mg/kg/injection, schedule: Q04DX003 (ip), vehicle: saline): 1 of 6 on day 11 | survivor count (dose: 12.5 mg/kg/injection, schedule: Q04DX003 (ip), vehicle: saline): 0 of 6 on day 11 | survivor count (dose: 25.0 mg/kg/injection, schedule: Q04DX003 (ip), vehicle: saline): 0 of 6 on day 11 | survivor count (dose: 50.0 mg/kg/injection, schedule: Q04DX003 (ip), vehicle: saline): 0 of 6 on day 11 | survivor count (dose: 100.0 mg/kg/injection, schedule: Q04DX003 (ip), vehicle: saline): 0 of 6 on day 11

COc1ccc(Cl)[n+]([O-])n1
survivor count (dose: 200.0 mg/kg/injection, schedule: Q04DX003 (sc), vehicle: Klucel (hydroxypropylcellulose) (HPC)): 0 of 6 on day 11

[Cl][Pt][Cl].[NH-]C(CO)C(=O)O (configuration not stated)
survivor count [3]: 3 of 6 on day 11 | survivor count [4]: 0 of 6 on day 11

C=C1C(O)C2(O)OCC34C(CC5C(C)=CC(=O)C(O)C5(C)C23)OC(=O)C(OC(=O)C/C=C/CCCCCCCC)C14 (configuration not stated)
survivor count (dose: 25.0 mg/kg/injection, schedule: Q04DX003 (ip), vehicle: saline + alcohol): 3 of 6 on day 11 | survivor count (dose: 50.0 mg/kg/injection, schedule: Q04DX003 (ip), vehicle: saline + alcohol): 0 of 6 on day 11 | survivor count (dose: 100.0 mg/kg/injection, schedule: Q04DX003 (ip), vehicle: saline + alcohol): 0 of 6 on day 11

CC#CCOCC(O)CCl (configuration not stated)
survivor count (dose: 300.0 mg/kg/injection, schedule: Q04DX003 (ip), vehicle: suspension in saline): 3 of 6 on day 11 | survivor count (dose: 600.0 mg/kg/injection, schedule: Q04DX003 (ip), vehicle: suspension in saline): 1 of 6 on day 11 and 3 of 6 on day 11 | survivor count [5]: 0 of 6 on day 11

CCOC1=Cc2c(oc3c(C(C)(C)C)cc(OCC)cc23)OC(C(C)(C)C)=C1
T/C (dose: 150.0 mg/kg/injection, schedule: Q04DX003 (sc), vehicle: saline with Tween-80): 128 % of control | T/C (dose: 600.0 mg/kg/injection, schedule: Q04DX003 (sc), vehicle: saline with Tween-80): 128 % of control

Nc1ccc2ccc(N)cc2c1
survivor count (dose: 600.0 mg/kg/injection, schedule: Q04DX003 (ip), vehicle: saline with Tween-80): 1 of 6 on day 11 | survivor count (dose: 1200.0 mg/kg/injection, schedule: Q04DX003 (ip), vehicle: saline with Tween-80): 0 of 6 on day 11

COC(=O)NC1C(C)OC(OC2C/C=C(/C)C3C=CC4C(OC5CC(OC6CC(OC7CC(O)C(O)C(C)O7)C(OC7CC(O)C(OC)C(C)O7)C(C)O6)C(O)C(C)O5)C(C)CC(C)C4C3(C)/C(O)=C3\C(=O)OC4(CC(C)C(CO)=CC4/C=C\2C)C3=O)CC1(C)[N+](=O)[O-] (configuration not stated)
survivor count (dose: 600.0 mg/kg/injection, schedule: Q04DX003 (ip), vehicle: water): 0 of 6 on day 11

OC1(CSc2ccccc2)CCCCC1
T/C (dose: 1200.0 mg/kg/injection, schedule: Q04DX003 (sc), vehicle: saline with Tween-80): 131 % of control | T/C (dose: 2400.0 mg/kg/injection, schedule: Q04DX003 (sc), vehicle: saline with Tween-80): 130 % of control

CCOC(=O)C1=C(Nc2ccc(OC)cc2)C(N)=NC1=N
survivor count [5]: 1 of 6 on day 11

O=NNc1ccc2cccnc2n1
survivor count (dose: 150.0 mg/kg/injection, schedule: Q04DX003 (ip), vehicle: other): 1 of 6 on day 11 | survivor count (dose: 300.0 mg/kg/injection, schedule: Q04DX003 (ip), vehicle: other): 0 of 6 on day 11 | survivor count [4]: 0 of 6 on day 11

Cc1ccc(C(=O)Nc2ccc(S(=O)(=O)O)c3cc(S(=O)(=O)O)cc(S(=O)(=O)O)c23)cc1NC(=O)c1cccc(NC(=O)Nc2cccc(C(=O)Nc3cc(C(=O)Nc4ccc(S(=O)(=O)O)c5cc(S(=O)(=O)O)cc(S(=O)(=O)O)c45)ccc3C)c2)c1
survivor count (dose: 400.0 mg/kg/injection, schedule: Q04DX003 (ip), vehicle: saline): 2 of 6 on day 11

COc1cccc2c1C(=O)c1c(O)c3c(c(O)c1C2=O)C[C@](O)(C(=O)CO)CC3OC1CC(N)C(OC2CCCCO2)C(C)O1 (some centres not stated)
survivor count (dose: 15.0 mg/kg/injection, schedule: Q04DX003 (ip), vehicle: water): 1 of 6 on day 11 | survivor count (dose: 30.0 mg/kg/injection, schedule: Q04DX003 (ip), vehicle: water): 0 of 6 on day 11 | survivor count (dose: 60.0 mg/kg/injection, schedule: Q04DX003 (ip), vehicle: water): 0 of 6 on day 11 | survivor count (dose: 75.0 mg/kg/injection, schedule: Q04DX003 (ip), vehicle: water): 0 of 6 on day 11 | survivor count [3]: 0 of 6 on day 11 | survivor count [4]: 0 of 6 on day 11
